Experiment [1] deals with T1, 12xMyc-Met30 C201S C205S C211S (S. cerevisiae) (UniProt P39014).
T1 sequence: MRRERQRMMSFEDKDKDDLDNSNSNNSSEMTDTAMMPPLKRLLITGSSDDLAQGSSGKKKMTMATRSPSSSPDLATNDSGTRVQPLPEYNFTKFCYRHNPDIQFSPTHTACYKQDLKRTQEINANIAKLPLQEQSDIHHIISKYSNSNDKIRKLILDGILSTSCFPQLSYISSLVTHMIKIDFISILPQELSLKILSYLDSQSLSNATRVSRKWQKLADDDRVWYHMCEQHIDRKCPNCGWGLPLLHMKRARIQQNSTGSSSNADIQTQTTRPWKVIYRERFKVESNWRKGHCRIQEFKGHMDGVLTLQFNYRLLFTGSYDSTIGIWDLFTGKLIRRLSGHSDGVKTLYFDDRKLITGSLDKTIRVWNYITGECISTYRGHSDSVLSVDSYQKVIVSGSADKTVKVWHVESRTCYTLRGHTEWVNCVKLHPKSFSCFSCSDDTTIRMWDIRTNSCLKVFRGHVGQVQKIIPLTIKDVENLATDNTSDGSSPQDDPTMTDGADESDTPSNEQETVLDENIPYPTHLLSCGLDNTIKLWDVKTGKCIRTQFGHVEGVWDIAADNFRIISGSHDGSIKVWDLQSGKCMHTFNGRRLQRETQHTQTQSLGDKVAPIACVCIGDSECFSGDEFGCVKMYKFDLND
The experiment can be described thus: co-IP; 12xMyc-Met30 variants immunoprecipitated on MYC-trap beads from 1 mg native yeast whole cell lysate (Triton X-100 buffer: 50 mM HEPES pH 7.5, 0.2% Triton X-100, 200 mM NaCl), overnight at 4 °C; co-precipitated Skp1 by western blot; cells untreated or treated with 100 µM CdCl2 (time courses); also H2O2 or zinc pre-treatment. (In general: Immunoblotting shows a protein as a band on a membrane.)

Protein sequences, listed by entry. Tags and fused reporters are not part of them.
UniProt P52286: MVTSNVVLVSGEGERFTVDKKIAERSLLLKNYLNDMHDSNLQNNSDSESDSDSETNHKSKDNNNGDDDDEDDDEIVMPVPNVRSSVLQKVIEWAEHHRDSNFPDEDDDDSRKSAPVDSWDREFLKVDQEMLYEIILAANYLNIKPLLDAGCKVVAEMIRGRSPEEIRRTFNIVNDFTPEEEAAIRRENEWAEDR

Experiment [2] has as its target T2, 12xMyc-Met30 ∆1–113 (S. cerevisiae) (UniProt P39014).
T2 sequence: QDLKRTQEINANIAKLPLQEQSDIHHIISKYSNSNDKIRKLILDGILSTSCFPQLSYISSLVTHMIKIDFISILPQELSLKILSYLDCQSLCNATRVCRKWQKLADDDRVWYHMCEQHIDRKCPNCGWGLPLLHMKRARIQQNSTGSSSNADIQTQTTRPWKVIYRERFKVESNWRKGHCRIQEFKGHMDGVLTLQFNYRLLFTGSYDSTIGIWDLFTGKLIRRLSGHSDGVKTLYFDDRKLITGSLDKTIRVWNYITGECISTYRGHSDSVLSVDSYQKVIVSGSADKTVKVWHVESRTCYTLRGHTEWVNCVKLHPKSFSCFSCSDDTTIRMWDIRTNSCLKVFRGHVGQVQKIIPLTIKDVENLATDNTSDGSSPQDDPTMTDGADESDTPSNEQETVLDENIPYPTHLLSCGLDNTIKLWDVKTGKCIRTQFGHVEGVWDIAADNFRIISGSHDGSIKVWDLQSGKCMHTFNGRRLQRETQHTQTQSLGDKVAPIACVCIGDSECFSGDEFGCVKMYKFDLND
The description is as above.

These are yes or no findings as the source states them, for the method shown. In cells and extracts the contact can be indirect. Some results given as binding are weak or reduced against the parent protein; the word gives no strength. Tags and fused reporters may be left off the sequences shown.

Here are results for one substance from PMC11079001.

Turning to Skp1 (from UniProt P52286 1-194), the binding result in experiment [1] and in experiment [2] was “binds” in each case.
